From US10837957B2, “In vitro model for pathological or physiologic conditions” (HemoShear, LLC, priority 2012, dated 2020)
At least one compound was matched to its structure with a doubt left.

Tested on: hepatocytes
Assay: In vitro fatty liver model: lipid accumulation (Nile red, Oil Red O, total triglycerides)
Format: cell-based, rat
Conditions: 1.5 μM pioglitazone, steatotic conditions, controlled hemodynamics, day 7
Procedure: Samples were then blocked in 5% goat serum, 0.2% blotting grade non-fat dry milk blocker, and 1% BSA in PBS for 45 minutes. The samples were then washed thrice in 0.1% BSA in PBS and incubated with 1:5000 dilution of Nile red (1 mM stock), 1:1000 DRAQS (a fluorescent DNA dye; Cell Signalling), 1:500 ALEXA FLUOR 488 conjugated phalloidin (Life Technologies), and 1% BSA in PBS for thirty minutes and protected from light. The samples were washed in 0.1% BSA in PBS thrice for five minutes each and mounted on glass cover slips using PROLONG GOLD antifade mounting media (an antifade reagent; Invitrogen). The samples were imaged on a Nikon C1+ Confocal System microscope. Oil Red O Assay: Accumulation of intracellular lipids within hepatocytes was assessed by adapting and modifying a commercially available Steatosis Colorimetric Assay Kit (Cayman Chemical). At the end of the culture period, 2 cm^2 sized porous membrane segments containing the hepatocytes from devices under healthy and steatotic conditions were washed with PBS and fixed in 4% paraformaldehyde for 30 minutes. […] The solution was then transferred to clear 96-well plates and absorbance was read at 490-520 nm in a spectrophotometer. Measurement of Total Triglycerides: Triglyceride content was assessed using a commercially available colorimetric assay kit (Cayman Triglyceride Colorimetric Assay Kit, Cat #10010303). […]

## CCc1ccc(CCOc2ccc(CC3SC(=O)NC3=O)cc2)nc1 (stereo not shown) [Pioglitazone, pioglitazone]
  lipid droplet formation (Nile red staining): decreases
